Results: PubChem BioAssay AID2685 (National Center for Advancing Translational Sciences (NCATS), 2010)
The other results are listed elsewhere or left out. The main result of the screen is listed elsewhere. These columns were measured beside it and carry no call. The list favours compounds with an active or inconclusive main result. Words in brackets tell the shape of the fitted curve; partial curves, single points and poor fits give uncertain potencies.

Assay: qHTS Assay for Lipid Storage Modulators in Drosophila S3 Cells;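 as to cell number change: cells counted by Cell Tracker Red CMTPX staining in the red channel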
Settings: BODIPY lipid droplet fluorescence, 18-24 h; for cell number change: measured here: cell count max response, cells fed with added oleic acid
Outline: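 Drosophila S3 cells loaded with oleic acid (400 uM, as added) and compounds at several concentrations; lipid droplets imaged by 488-nm laser-scanning cytometry, 500–530 nm intensity and object ratio to cell channel. Percent activity normalized to 20 uM Triacsin C.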

[1] = measured here: cell number channel AC50, cells fed with added oleic acid
[2] = measured here: lipid fluorescence (Fed channel) AC50, cells fed with added oleic acid

| SMILES | AC50 [1] | AC50 [2] | cell number change [%] |
| --- | --- | --- | --- |
| CS(=O)(=O)c1ccc(Cl)c(NC(=O)c2cccc(-n3cnnn3)c2)c1 | 6.51 µM [rising, single point] | – | – |
| O=c1c2ccccc2nc2n1C(CSCc1ccccc1)CS2 (stereo not drawn) | – | 29.1 µM [falling, single point] | – |
| CN1CCN(C(=O)C2=C[C@@H](C3CC3)C[C@@H](OCc3ccc(CO)cc3)O2)CC1 | – | 0.00461 µM [falling, full curve, poor fit] | – |
| Cc1cc(NC(=O)CC(F)(F)F)n(-c2ccccc2)n1 | – | – | -23.8 |
| NC(=O)c1ccccc1NC(=O)CS(=O)(=O)Cc1ccccc1 | – | 6.51 µM [rising, single point] | -5.39 |
| C=CCNc1nc(Nc2ccc(OC)cc2)nc(OC)n1 | 6.51 µM [rising, partial curve] | – | 71.5 |
| CCOC(=O)c1ccc(N2NC(=O)/C(=C/c3ccc(OC(=O)c4ccco4)c(OC)c3)C2=O)cc1 | – | – | -5.39 |
| O=C1c2oc3ccc(Cl)cc3c(=O)c2C(c2ccccn2)N1CCCN1CCOCC1 (stereo not drawn) | 0.259 µM [falling, partial curve, poor fit] | 0.651 µM [falling, full curve, poor fit] | -6.86 |
| CC1(C)NC(=O)N(CCCCOc2ccc(Cl)cc2)C1=O | – | 6.51 µM [falling, single point] | – |
| CCN(Cc1nc2cc(Cl)ccc2c(=O)[nH]1)C(=O)c1cccc(OCc2c(C)noc2C)c1 | – | 0.00461 µM [falling, full curve, poor fit] | -6.63 |
| CCc1nnc(NS(=O)(=O)c2ccc(NC(=S)Nc3ccc(F)cc3)cc2)s1 | 6.51 µM [rising, single point] | 14.6 µM [rising, single point] | 6.05 |
| CCOC(=O)C1=C(C)NC(=O)NC1c1c(O)ccc2ccccc12 (stereo not drawn) | – | 14.6 µM [falling, partial curve, poor fit] | – |
| CCOc1ccc(N(CC(=O)NC2CCCCC2)C(=O)CCC(=O)Nc2nccs2)cc1 | – | 0.116 µM [falling, single point] | -5.13 |
| CCn1c(O)c(C=NCc2cccs2)c(=O)n(CC)c1=S | – | – | 9.49 |
| Cc1ccc(S(=O)(=O)NC(=O)NCc2ccc(Cl)cc2)cc1 | 0.82 µM [rising, partial curve, poor fit] | 0.00411 µM [rising, full curve, poor fit] | -2.3 |
| CCN(CC)S(=O)(=O)c1ccc(N2CCOCC2)c(NC(=O)c2ccccc2)c1 | – | 6.51 µM [rising, single point] | 26.4 |
| CCc1cccc(NC(=O)CCS(=O)(=O)c2cc3c(cc2C)NC(=O)CO3)c1 | – | – | -13.3 |

A second format for some results above:
CC1(C)NC(=O)N(CCCCOc2ccc(Cl)cc2)C1=O
  AC50 [2]: 6.51 µM [falling, single point]
CCN(Cc1nc2cc(Cl)ccc2c(=O)[nH]1)C(=O)c1cccc(OCc2c(C)noc2C)c1
  AC50 [2]: 0.00461 µM [falling, full curve, poor fit]; cell number change [%]: -6.63
